For 1 substance, binding results are on record in publication PMC4397538 (2015).

Results are given in words; binding and its absence hold for the method and conditions named. A result given as binding can be weak or reduced; the word gives no strength.

For the assay, the target named is T1, Biotin-BH4-Bcl-XL.
T1 sequence (peptide, biotin on the N-terminus (also used without the biotin tag)): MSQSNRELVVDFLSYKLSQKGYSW
Nature of the assay: SPR; Biacore T200; biotin peptides immobilised on different channels of a streptavidin-coated sensor chip; purified GST-fusion proteins flowed over at the indicated concentrations; binding to the scrambled peptide subtracted; both purified.

For the substance “GST-RyR3 domain (mink RyR3, a.a. 2263-2688) (domain or fragment)”, the binding entry is “binds”.
